Laboratory results taken from US20240376427A1, “COMPOSITIONS AND SYSTEMS COMPRISING THREE-DIMENSIONAL NERVE CELL CULTURES AND METHODS OF USING THE SAME” (THE ADMINISTRATORS OF THE TULANE EDUCATIONAL FUND, priority 2021, published 2024).
At least one compound was matched to its structure with a doubt left.

Test system: hPSC-derived nociceptor-dorsal spinal cord cocultures
Assay: Evoked response field potential recording in hPSC-derived nociceptor-dorsal spinal cord cocultures
Format: cell-based, human
Conditions: 6-8 weeks of maturation
Method: Generation o±3D Spheroid Cultures. Cryogenically preserved human stem-cell derived spinal cord dorsal horn (SCDH) precursor cells were a kind gift from the Randolph Ashton. Cells were rapidly thawed and diluted 1:4 in Neurobasal Medium (Thermo-Fisher Scientific, Waltham, MA). Cells were centrifuged at 300 g for 4 minutes and the supernatant was removed. Cells were then resuspended in neuronal differentiation media comprised of Neurobasal Medium supplemented with 2% v/v B27 supplement (Thermo-Fisher), 1% v/v N2 supplement (Thermo-Fisher), 1% v/v GlutaMAX (Thermo-Fisher), 20 ng/mL human nerve growth factor, 10 ng/mL recombinant human/murine/rat brain derived neurotrophic factor, 10 ng/mL recombinant human glial cell derived neurotrophic factor, 10 ng/mL recombinant human NT-3 (all growth factors from PeproTech, Cranbury, NJ, USA), 1 uM dibutyrl-cAMP (Millipore-Sigma, St. Louis, MO, USA), 10 uM Y-27632 (Abcam, Waltham, MA, USA), 10 uM DAPT (Tocris, Minneapolis, MN, USA), and 1% v/v antibiotic/antimycotic solution (Thermo-Fisher). Cells were plated at 500,000 cells/cm^2 on culture well plates coated with Matrigel (Corning) diluted at 1:100 for six days in neuronal differentiation media changed every-other-day to force terminal neuron differentiation. Cryogenically preserved human stem cell-derived nociceptors were purchased from Anatomic, Inc (Minneapolis, MN, USA). […]

CN1CCc2cc3c(cc2[C@H]1[C@@H]1OC(=O)c2c1ccc1c2OCO1)OCO3 [bicuculline, (+)-bicuculline]
area under the curve (AUC) of the late P1 portion of the synaptic waveform: increase
synaptically evoked activity in dorsal spinal cord tissue following stimulation of afferent nociceptor spheroid (40 V stimuli): prolongs the period of synaptically evoked activity
